The record followed here is article PMC12693483, “A screen for synthetic genetic interactions with the Saccharomyces cerevisiae hrq1ΔN allele”.

The target in the data set is T1, Hrq1 NTD del280-1077 (Saccharomyces cerevisiae) (UniProt Q05549).
T1 sequence (looked up): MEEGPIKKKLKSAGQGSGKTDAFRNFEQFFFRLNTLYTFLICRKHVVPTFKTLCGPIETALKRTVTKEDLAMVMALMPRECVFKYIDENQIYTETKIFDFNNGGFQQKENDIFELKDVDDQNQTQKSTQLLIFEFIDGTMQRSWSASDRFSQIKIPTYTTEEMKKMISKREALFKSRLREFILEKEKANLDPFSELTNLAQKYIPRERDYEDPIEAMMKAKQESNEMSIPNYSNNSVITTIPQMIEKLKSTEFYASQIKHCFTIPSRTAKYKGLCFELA
As to the kind of experiment: EMSA. The conditions noted are these: 10 nM protein, more binding than 10 nM Hrq1ΔN, weak ssDNA binding; EMSA: 0.1 nM labelled DNA, 25 mM Na-HEPES pH 8.0, 5% glycerol, 50 mM NaOAc pH 7.6, 7.5 mM MgOAc, 0.01% Tween-20, 30 min at 30 °C; recombinant protein; residues 1-279; label: 5'-32P; single-stranded DNA. (In EMSA bound probe runs differently from free probe, usually more slowly.)

A weaker result is weaker than the reference pair of the same experiment. Where a protein sequence is shown, tags need not be part of it.

In the case of “TTTTTTTTTTTTTTTTTTTTTTTTTTTTTT [poly(dT) 30mer]”, the binding result is “binds more weakly”.
